Patent publication US11220671B2, “Methods for the maturation of cardiomyocytes on amniotic fluid cell-derived ECM, cellular constructs, and uses for cardiotoxicity and proarrhythmic screening of drug compounds” (STEMBIOSYS, INC., priority 2019, dated 2022)

Experiment: Composition of amniotic fluid cell-derived ECM by mass spectrometry (total spectra count)
[1] = amniotic fluid cell-derived ECM Matrix A, mass spectrometry, label = protein component
[2] = amniotic fluid cell-derived ECM Matrix B, mass spectrometry, label = protein component
[3] = amniotic fluid cell-derived ECM Matrix C, mass spectrometry, label = protein component
[4] = amniotic fluid cell-derived ECM Matrix D, mass spectrometry, label = protein component

| Molecule | Total Spectra Count Matrix A [1] | Total Spectra Count Matrix B [2] | Total Spectra Count Matrix C [3] | Total Spectra Count Matrix D [4] | Total Spectra Count Matrix A (protein component found by mass spectrometry in amniotic fluid cell-derived ECM Matrix A (Example 1)) | Total Spectra Count Matrix B (protein component found by mass spectrometry in amniotic fluid cell-derived ECM Matrix B (Example 1)) | Total Spectra Count Matrix C (protein component found by mass spectrometry in amniotic fluid cell-derived ECM Matrix C (Example 1)) | Total Spectra Count Matrix D (protein component found by mass spectrometry in amniotic fluid cell-derived ECM Matrix D (Example 1)) |
| --- | --- | --- | --- | --- | --- | --- | --- | --- |
| N-acylneuraminate cytidylyltransferase (protein, UniProt Q8NFW8 1-434, looked up) N-acylneuraminate …: MDSVEKGAATSVSNPRGRPSRGRPPKLQRNSRGGQGRGVEKPPHLAALILARGGSKGIPLKNIKHLAGVPLIGWVLRAALDSGAFQSVWVSTDHDEIENVAKQFGAQVHRRSSEVSKDSSTSLDAIIEFLNYHNEVDIVGNIQATSPCLHPTDLQKVAEMIREEGYDSVFSVVRRHQFRWSEIQKGVREVTEPLNLNPAKRPRRQDWDGELYENGSFYFAKRHLIEMGYLQGGKMAYYEMRAEHSVDIDVDIDWPIAEQRVLRYGYFGKEKLKEIKLLVCNIDGCLTNGHIYVSGDQKEIISYDVKDAIGISLLKKSGIEVRLISERACSKQTLSSLKLDCKMEVSVSDKLAVVDEWRKEMGLCWKEVAYLGNEVSDEECLKRVGLSGAPADACSTAQKAVGYICKCNGGRGAIREFAEHICLLMEKVNNSCQK | 0 | 6 | 0 | 0 |  |  |  |  |
| Myelin expression factor 2 (protein, UniProt Q9P2K5 1-600, looked up) Myelin expression factor 2: MADANKAEVPGATGGDSPHLQPAEPPGEPRREPHPAEAEKQQPQHSSSSNGVKMENDESAKEEKSDLKEKSTGSKKANRFHPYSKDKNSGAGEKKGPNRNRVFISNIPYDMKWQAIKDLMREKVGEVTYVELFKDAEGKSRGCGVVEFKDEEFVKKALETMNKYDLSGRPLNIKEDPDGENARRALQRTGGSFPGGHVPDMGSGLMNLPPSILNNPNIPPEVISNLQAGRLGSTIFVANLDFKVGWKKLKEVFSIAGTVKRADIKEDKDGKSRGMGTVTFEQAIEAVQAISMFNGQFLFDRPMHVKMDDKSVPHEEYRSHDGKTPQLPRGLGGIGMGLGPGGQPISASQLNIGGVMGNLGPGGMGMDGPGFGGMNRIGGGIGFGGLEAMNSMGGFGGVGRMGELYRGAMTSSMERDFGRGDIGINQGFGDSFGRLGSAMIGGFAGRIGSSNMGPVGSGISGGMGSMNSVTGGMGMGLDRMSSSFDRMGPGIGAILERSIDMDRGFLSGPMGSGMRERIGSKGNQIFVRNLPFDLTWQKLKEKFSQCGHVMFAEIKMENGKSKGCGTVRFDSPESAEKACRIMNGIKISGREIDVRLDRNA | 0 | 2 | 0 | 0 |  |  |  |  |
| NAD(P) transhydrogenase, mitochondrial (protein, UniProt Q13423 44-1086, looked up) NAD(P) transhydrogenase, …: CKAPVKPGIPYKQLTVGVPKEIFQNEKRVALSPAGVQNLVKQGFNVVVESGAGEASKFSDDHYRVAGAQIQGAKEVLASDLVVKVRAPMVNPTLGVHEADLLKTSGTLISFIYPAQNPELLNKLSQRKTTVLAMDQVPRVTIAQGYDALSSMANIAGYKAVVLAANHFGRFFTGQITAAGKVPPAKILIVGGGVAGLASAGAAKSMGAIVRGFDTRAAALEQFKSLGAEPLEVDLKESGEGQGGYAKEMSKEFIEAEMKLFAQQCKEVDILISTALIPGKKAPVLFNKEMIESMKEGSVVVDLAAEAGGNFETTKPGELYIHKGITHIGYTDLPSRMATQASTLYSNNITKLLKAISPDKDNFYFDVKDDFDFGTMGHVIRGTVVMKDGKVIFPAPTPKNIPQGAPVKQKTVAELEAEKAATITPFRKTMSTASAYTAGLTGILGLGIAAPNLAFSQMVTTFGLAGIVGYHTVWGVTPALHSPLMSVTNAISGLTAVGGLALMGGHLYPSTTSQGLAALAAFISSVNIAGGFLVTQRMLDMFKRPTDPPEYNYLYLLPAGTFVGGYLAALYSGYNIEQIMYLGSGLCCVGALAGLSTQGTARLGNALGMIGVAGGLAATLGVLKPGPELLAQMSGAMALGGTIGLTIAKRIQISDLPQLVAAFHSLVGLAAVLTCIAEYIIEYPHFATDAAANLTKIVAYLGTYIGGVTFSGSLIAYGKLQGLLKSAPLLLPGRHLLNAGLLAASVGGIIPFMVDPSFTTGITCLGSVSALSAVMGVTLTAAIGGADMPVVITVLNSYSGWALCAEGFLLNNNLLTIVGALIGSSGAILSYIMCVAMNRSLANVILGGYGTTSTAGGKPMEISGTHTEINLDNAIDMIREANSIIITPGYGLCAAKAQYPIADLVKMLTEQGKKVRFGIHPVAGRMPGQLNVLLAEAGVPYDIVLEMDEINHDFPDTDLVLVIGANDTVNSAAQEDPNSIIAGMPVLEVWKSKQVIVMKRSLGVGYAAVDNPIFYKPNTAMLLGDAKKTCDALQAKVRESYQK | 0 | 3 | 0 | 0 |  |  |  |  |
| Metastasis-associated protein MTA2 (protein, UniProt O94776 1-668, looked up) Metastasis-associated protein …: MAANMYRVGDYVYFENSSSNPYLVRRIEELNKTANGNVEAKVVCLFRRRDISSSLNSLADSNAREFEEESKQPGVSEQQRHQLKHRELFLSRQFESLPATHIRGKCSVTLLNETDILSQYLEKEDCFFYSLVFDPVQKTLLADQGEIRVGCKYQAEIPDRLVEGESDNRNQQKMEMKVWDPDNPLTDRQIDQFLVVARAVGTFARALDCSSSIRQPSLHMSAAAASRDITLFHAMDTLQRNGYDLAKAMSTLVPQGGPVLCRDEMEEWSASEAMLFEEALEKYGKDFNDIRQDFLPWKSLASIVQFYYMWKTTDRYIQQKRLKAAEADSKLKQVYIPTYTKPNPNQIISVGSKPGMNGAGFQKGLTCESCHTTQSAQWYAWGPPNMQCRLCASCWIYWKKYGGLKTPTQLEGATRGTTEPHSRGHLSRPEAQSLSPYTTSANRAKLLAKNRQTFLLQTTKLTRLARRMCRDLLQPRRAARRPYAPINANAIKAECSIRLPKAAKTPLKIHPLVRLPLATIVKDLVAQAPLKPKTPRGTKTPINRNQLSQNRGLGGIMVKRAYETMAGAGVPFSANGRPLASGIRSSSQPAAKRQKLNPADAPNPVVFVATKDTRALRKALTHLEMRRAARRPNLPLKVKPTLIAVRPPVPLPAPSHPASTNEPIVLED | 0 | 5 | 0 | 0 |  |  |  |  |
| Non-syndromic hearing impairment protein 5 (protein, UniProt O60443 1-496, looked up) Gasdermin-E: MFAKATRNFLREVDADGDLIAVSNLNDSDKLQLLSLVTKKKRFWCWQRPKYQFLSLTLGDVLIEDQFPSPVVVESDFVKYEGKFANHVSGTLETALGKVKLNLGGSSRVESQSSFGTLRKQEVDLQQLIRDSAERTINLRNPVLQQVLEGRNEVLCVLTQKITTMQKCVISEHMQVEEKCGGIVGIQTKTVQVSATEDGNVTKDSNVVLEIPAATTIAYGVIELYVKLDGQFEFCLLRGKQGGFENKKRIDSVYLDPLVFREFAFIDMPDAAHGISSQDGPLSVLKQATLLLERNFHPFAELPEPQQTALSDIFQAVLFDDELLMVLEPVCDDLVSGLSPTVAVLGELKPRQQQDLVAFLQLVGCSLQGGCPGPEDAGSKQLFMTAYFLVSALAEMPDSAAALLGTCCKLQIIPTLCHLLRALSDDGVSDLEDPTLTPLKDTERFGIVQRLFASADISLERLKSSVKAVILKDSKVFPLLLCITLNGLCALGREHS | 0 | 2 | 0 | 0 |  |  |  |  |
| Myosin light chain 6B (protein, UniProt P14649 1-208, looked up) Myosin light chain 6B: MPPKKDVPVKKPAGPSISKPAAKPAAAGAPPAKTKAEPAVPQAPQKTQEPPVDLSKVVIEFNKDQLEEFKEAFELFDRVGDGKILYSQCGDVMRALGQNPTNAEVLKVLGNPKSDELKSRRVDFETFLPMLQAVAKNRGQGTYEDYLEGFRVFDKEGNGKVMGAELRHVLTTLGEKMTEEEVETVLAGHEDSNGCINYEAFLKHILSV | 0 | 0 | 6 | 0 |  |  |  |  |
| ATP-citrate synthase (protein, UniProt P53396 1-1101, looked up) ATP-citrate synthase: MSAKAISEQTGKELLYKFICTTSAIQNRFKYARVTPDTDWARLLQDHPWLLSQNLVVKPDQLIKRRGKLGLVGVNLTLDGVKSWLKPRLGQEATVGKATGFLKNFLIEPFVPHSQAEEFYVCIYATREGDYVLFHHEGGVDVGDVDAKAQKLLVGVDEKLNPEDIKKHLLVHAPEDKKEILASFISGLFNFYEDLYFTYLEINPLVVTKDGVYVLDLAAKVDATADYICKVKWGDIEFPPPFGREAYPEEAYIADLDAKSGASLKLTLLNPKGRIWTMVAGGGASVVYSDTICDLGGVNELANYGEYSGAPSEQQTYDYAKTILSLMTREKHPDGKILIIGGSIANFTNVAATFKGIVRAIRDYQGPLKEHEVTIFVRRGGPNYQEGLRVMGEVGKTTGIPIHVFGTETHMTAIVGMALGHRPIPNQPPTAAHTANFLLNASGSTSTPAPSRTASFSESRADEVAPAKKAKPAMPQDSVPSPRSLQGKSTTLFSRHTKAIVWGMQTRAVQGMLDFDYVCSRDEPSVAAMVYPFTGDHKQKFYWGHKEILIPVFKNMADAMRKHPEVDVLINFASLRSAYDSTMETMNYAQIRTIAIIAEGIPEALTRKLIKKADQKGVTIIGPATVGGIKPGCFKIGNTGGMLDNILASKLYRPGSVAYVSRSGGMSNELNNIISRTTDGVYEGVAIGGDRYPGSTFMDHVLRYQDTPGVKMIVVLGEIGGTEEYKICRGIKEGRLTKPIVCWCIGTCATMFSSEVQFGHAGACANQASETAVAKNQALKEAGVFVPRSFDELGEIIQSVYEDLVANGVIVPAQEVPPPTVPMDYSWARELGLIRKPASFMTSICDERGQELIYAGMPITEVFKEEMGIGGVLGLLWFQKRLPKYSCQFIEMCLMVTADHGPAVSGAHNTIICARAGKDLVSSLTSGLLTIGDRFGGALDAAAKMFSKAFDSGIIPMEFVNKMKKEGKLIMGIGHRVKSINNPDMRVQILKDYVRQHFPATPLLDYALEVEKITTSKKPNLILNVDGLIGVAFVDMLRNCGSFTREEADEYIDIGALNGIFVLGRSMGFIGHYLDQKRLKQGLYRHPWDDISYVLPEHMSM |  |  |  |  | 22 | 20 | 2 | 18 |
